Results are given in words; binding and its absence hold for the method and conditions named. In cells and extracts the contact can be indirect. A result given as binding can be weak or reduced; the word gives no strength. Tags and fused reporters may be left off the sequences shown.

By UniProt entry, the sequences of proteins in these tests, tags left out. Where a name states a change or a piece, a line headed by the entry shows the natural chain unless it says otherwise.
UniProt Q9D287: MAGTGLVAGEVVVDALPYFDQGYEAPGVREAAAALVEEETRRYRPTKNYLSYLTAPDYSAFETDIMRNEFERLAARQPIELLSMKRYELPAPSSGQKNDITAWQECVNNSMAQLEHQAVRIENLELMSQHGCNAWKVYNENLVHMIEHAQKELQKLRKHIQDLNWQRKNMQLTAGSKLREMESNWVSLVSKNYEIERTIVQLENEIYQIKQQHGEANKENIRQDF

The target in assay [1] is Bcas2 ΔCC1 with FLAG tag (UniProt Q9D287). The experiment in a line: co-IP; 293T cells transfected with FLAG-tagged Bcas2 (full length or coiled-coil deletions) and SRSF7-HA; IP by the FLAG tag.
The target of assay [2] is Bcas2 ΔCC2 with FLAG tag (UniProt Q9D287). The assay is described as above.

B1: SRSF7-HA (protein, UniProt Q8BL97 1-267)
chain: MRSSARGRPLQAATAFFLSLFFFLRRFERGFWLWGGDSETKVYVGNLGTGAGKGELERAFSYYGPLRTVWIARNPPGFAFVEFEDPRDAEDAVRGLDGKVICGSRVRVELSTGMPRRSRFDRPPARRPFDPNDRCYECGEKGHYAYDCHRYSRRRRSRSRSRSHSRSRGRRYSRSRSRSRGRRSRSASPRRSRSVSLRRSRSASLRRSRSGSIIGSRYFQSRSRSRSRSRSISRPRSSRSKSRSPSPKRSRSPSGSPHRSASPERMD
For the molecule B1, the binding entry in assay [1] and in assay [2] was “binds weakly” throughout.
